Values from PubChem BioAssay AID1259306 (Sanger Institute, 2017).

- Test: 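Kinases needed for viability and knock-downs that synergise with BYL719, cetuximab or trametinib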 (primary screen)
- Cells: human SNU-C5 colorectal cancer cells
- Knock-down reagent: siRNA pool against human genes
- Conditions: DMSO vehicle alone, or one anchor drug: BYL719 at 1 µM, cetuximab at 5 µg/ml or trametinib at 10 nM, given 24 h into the assay
- Read-out: 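Viability versus non-targeting pool averaged across replicates, given as fraction and robust z-score, and synergy scores for BYL719, cetuximab or trametinib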
- Reading the numbers: robust z-score, knock-down alone and viability, knock-down alone: higher = more viable cells
- Active means: 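Called essential when the robust z-score for knock-down alone is below -3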
- Meaning of the calls: active = essential (knock-down alone); inactive = no change alone
The whole screen tested 794 reagents; shown is an unselected part. Of all reagents, 11 (1.4%) are marked active. 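Calls reflect knock-down alone; synergy scores play no part, so knock-downs synergising with a drug can be called no change.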 Viability is capped at 1. Not all columns of the deposit are shown. Reagent sequences are not shown. Not given: the amount of reagent, the time to read-out.

CDK5R2 (cyclin dependent kinase 5 regulatory subunit 2): robust z-score, knock-down alone = -0.00334; viability, knock-down alone = 0.863; Call = inactive
STRADB (STE20 related adaptor beta): robust z-score, knock-down alone = -1.17; viability, knock-down alone = 0.702; Call = inactive
HUNK (hormonally up-regulated Neu-associated kinase): robust z-score, knock-down alone = 0.919; viability, knock-down alone = 0.99; Call = inactive
PI4K2B (phosphatidylinositol 4-kinase type 2 beta): robust z-score, knock-down alone = -0.436; viability, knock-down alone = 0.804; Call = inactive
STK16 (serine/threonine kinase 16): robust z-score, knock-down alone = -0.17; viability, knock-down alone = 0.84; Call = inactive
CDK7 (cyclin dependent kinase 7): robust z-score, knock-down alone = 0.989; viability, knock-down alone = 1; Call = inactive
TEK (TEK receptor tyrosine kinase): robust z-score, knock-down alone = 0.804; viability, knock-down alone = 0.974; Call = inactive
PDGFRL (platelet derived growth factor receptor like): robust z-score, knock-down alone = 0.989; viability, knock-down alone = 1; Call = inactive
CTNNB1 (catenin beta 1): robust z-score, knock-down alone = -0.711; viability, knock-down alone = 0.766; Call = inactive
PTEN (phosphatase and tensin homolog): robust z-score, knock-down alone = 0.0422; viability, knock-down alone = 0.87; Call = inactive
ELF3 (E74 like ETS transcription factor 3): robust z-score, knock-down alone = -2.02; viability, knock-down alone = 0.586; Call = inactive
DGKQ (diacylglycerol kinase theta): robust z-score, knock-down alone = -1.38; viability, knock-down alone = 0.674; Call = inactive
POLR2B (RNA polymerase II subunit B): robust z-score, knock-down alone = -4.09; viability, knock-down alone = 0.3; Call = active
FGFR2 (fibroblast growth factor receptor 2): robust z-score, knock-down alone = -2.08; viability, knock-down alone = 0.577; Call = inactive
DUSP21 (dual specificity phosphatase 21): robust z-score, knock-down alone = 0.327; viability, knock-down alone = 0.909; Call = inactive
NME2 (NME/NM23 nucleoside diphosphate kinase 2): robust z-score, knock-down alone = -0.456; viability, knock-down alone = 0.801; Call = inactive
EIF2AK1 (eukaryotic translation initiation factor 2 alpha kinase 1): robust z-score, knock-down alone = 0.989; viability, knock-down alone = 1; Call = inactive
CAMK2A (calcium/calmodulin dependent protein kinase II alpha): robust z-score, knock-down alone = -0.346; viability, knock-down alone = 0.816; Call = inactive
NME7 (NME/NM23 family member 7): robust z-score, knock-down alone = 0.989; viability, knock-down alone = 1; Call = inactive
MAP3K10 (mitogen-activated protein kinase kinase kinase 10): robust z-score, knock-down alone = 0.989; viability, knock-down alone = 1; Call = inactive
PRKCD (protein kinase C delta): robust z-score, knock-down alone = -0.333; viability, knock-down alone = 0.818; Call = inactive
DTYMK (deoxythymidylate kinase): robust z-score, knock-down alone = 0.989; viability, knock-down alone = 1; Call = inactive
MYLK3 (myosin light chain kinase 3): robust z-score, knock-down alone = 0.0588; viability, knock-down alone = 0.872; Call = inactive
EIF2AK3 (eukaryotic translation initiation factor 2 alpha kinase 3): robust z-score, knock-down alone = 0.591; viability, knock-down alone = 0.945; Call = inactive
EPHB2 (EPH receptor B2): robust z-score, knock-down alone = -1.28; viability, knock-down alone = 0.688; Call = inactive
BUB1 (BUB1 mitotic checkpoint serine/threonine kinase): robust z-score, knock-down alone = 0.826; viability, knock-down alone = 0.978; Call = inactive
PLK3 (polo like kinase 3): robust z-score, knock-down alone = -0.502; viability, knock-down alone = 0.795; Call = inactive
FGFR4 (fibroblast growth factor receptor 4): robust z-score, knock-down alone = 0.96; viability, knock-down alone = 0.996; Call = inactive

Active calls, among the entries above:
POLR2B (RNA polymerase II subunit B): robust z-score, knock-down alone = -4.09; viability, knock-down alone = 0.3; Call = active
